From article doi:10.1101/2021.07.29.454247
These are yes or no findings as the source states them, for the method shown. In cells and extracts the contact can be indirect. Some results given as binding are weak or reduced against the parent protein; the word gives no strength.

Protein sequences, listed by entry. Tags and fused reporters are not part of them. Residues count along the entry.
UniProt Q00960, residues 27-1482: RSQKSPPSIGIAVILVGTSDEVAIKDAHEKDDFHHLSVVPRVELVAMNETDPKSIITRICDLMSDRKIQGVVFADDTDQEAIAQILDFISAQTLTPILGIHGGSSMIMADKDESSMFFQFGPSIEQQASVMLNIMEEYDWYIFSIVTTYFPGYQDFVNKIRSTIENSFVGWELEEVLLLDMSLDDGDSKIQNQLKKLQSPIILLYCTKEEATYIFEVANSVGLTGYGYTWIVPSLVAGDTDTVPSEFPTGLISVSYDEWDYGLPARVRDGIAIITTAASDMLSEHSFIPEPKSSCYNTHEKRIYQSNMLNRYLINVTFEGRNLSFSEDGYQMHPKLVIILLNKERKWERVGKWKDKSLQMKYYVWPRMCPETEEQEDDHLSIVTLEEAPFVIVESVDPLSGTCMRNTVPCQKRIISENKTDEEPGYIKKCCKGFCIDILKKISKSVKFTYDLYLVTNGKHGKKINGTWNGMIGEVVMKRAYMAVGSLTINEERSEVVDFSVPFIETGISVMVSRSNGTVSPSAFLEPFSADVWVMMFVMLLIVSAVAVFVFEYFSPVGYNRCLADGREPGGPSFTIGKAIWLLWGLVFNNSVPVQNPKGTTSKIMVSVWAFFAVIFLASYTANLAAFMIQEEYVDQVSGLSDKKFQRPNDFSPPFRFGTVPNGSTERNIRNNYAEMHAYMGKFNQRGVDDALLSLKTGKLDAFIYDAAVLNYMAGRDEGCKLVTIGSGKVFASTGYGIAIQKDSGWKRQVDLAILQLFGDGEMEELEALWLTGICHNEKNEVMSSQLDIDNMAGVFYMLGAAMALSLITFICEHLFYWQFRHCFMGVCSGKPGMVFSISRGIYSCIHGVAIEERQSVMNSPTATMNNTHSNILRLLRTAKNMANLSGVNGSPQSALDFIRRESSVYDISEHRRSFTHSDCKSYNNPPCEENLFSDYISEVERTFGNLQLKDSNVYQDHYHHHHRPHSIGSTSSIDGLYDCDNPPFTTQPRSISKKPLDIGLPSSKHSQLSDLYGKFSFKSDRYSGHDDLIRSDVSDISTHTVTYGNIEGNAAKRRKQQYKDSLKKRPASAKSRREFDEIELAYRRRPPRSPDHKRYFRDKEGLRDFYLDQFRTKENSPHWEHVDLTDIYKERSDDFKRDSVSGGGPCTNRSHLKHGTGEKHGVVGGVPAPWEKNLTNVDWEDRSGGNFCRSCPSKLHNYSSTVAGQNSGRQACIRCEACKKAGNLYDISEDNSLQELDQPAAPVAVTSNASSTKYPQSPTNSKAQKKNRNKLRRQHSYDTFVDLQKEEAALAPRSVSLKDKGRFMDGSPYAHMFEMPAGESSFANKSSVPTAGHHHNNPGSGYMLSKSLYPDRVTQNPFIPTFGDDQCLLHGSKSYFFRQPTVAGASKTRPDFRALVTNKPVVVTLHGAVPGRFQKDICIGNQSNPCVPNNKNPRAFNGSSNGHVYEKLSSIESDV

How the values were obtained:
[1] = target: GluN2A (NMDAR subunit GluN2a) (UniProt Q00959); assay: co-IP
[2] = target: GluN2B (NMDAR subunit GluN2b) (UniProt Q00960); assay: co-IP

Binder: YGRKKRRQRRREEDTDSSEEMLALAEE [TAT-EE3, membrane-permeable disrupting peptide]
- binding [1]: binds
- binding [2]: binds
